Measured values published in the supplement of paper PMC12823440, “Inhibitors supercharge kinase turnover through native proteolytic circuits” (Nature, 2025).
Where a name gives a salt, the structure may show the parent alone. Some of the results follow. Hit calls seldom repeat between salt and free forms of one compound.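 Kinases were expressed as nanoluciferase fusions in K562 cells and luminescence was read every 4 h between 2 and 18 h as percent of control, DMSO set to 100% and a positive control to 0%. A time point counts as decreased when the signal drops significantly (2 sigma). The hit call is the authors' own, does not follow from the count of time points alone, and its rule is not shown.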

Chains of the proteins cited; added tags and fusions are not shown.
UniProt P06241, whole entry, looked up: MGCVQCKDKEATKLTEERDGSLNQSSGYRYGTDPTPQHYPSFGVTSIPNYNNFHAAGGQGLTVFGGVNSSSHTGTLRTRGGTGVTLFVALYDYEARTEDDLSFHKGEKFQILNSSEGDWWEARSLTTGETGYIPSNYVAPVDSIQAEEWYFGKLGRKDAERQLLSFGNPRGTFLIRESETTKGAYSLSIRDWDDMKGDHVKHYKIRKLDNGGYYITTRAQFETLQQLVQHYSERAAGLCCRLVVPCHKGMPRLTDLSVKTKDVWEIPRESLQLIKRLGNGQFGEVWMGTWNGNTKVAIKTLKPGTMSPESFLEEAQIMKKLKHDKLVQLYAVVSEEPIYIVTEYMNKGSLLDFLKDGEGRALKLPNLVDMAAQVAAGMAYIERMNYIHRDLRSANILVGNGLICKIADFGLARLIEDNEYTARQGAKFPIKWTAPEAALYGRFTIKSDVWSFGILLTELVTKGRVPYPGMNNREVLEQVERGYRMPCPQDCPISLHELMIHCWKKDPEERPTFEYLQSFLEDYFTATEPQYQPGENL

biological target: FYN (UniProt P06241); test: number of time points (of 5) at which kinase-Nluc abundance scored as decreased, DMSO-normalised (count); higher = more persistent destabilization; conditions: K562; 2-18 h

Row | SMILES | number of time points
1 | CCS(=O)(=O)c1ccc(Oc2cc(O[C@@H](C)CO)cc(C(=O)Nc3ccn(C)n3)c2)cn1 (10 µM) | 0
2 | O=C1C(=Cc2ccc(O)c(O)c2)Oc2ccccc21 (2.5 µM) | 0
3 | CN(C)CCCNc1ccn2ncc(-c3ccc4c(c3)OCO4)c2n1 (10 µM) | 0
4 | COc1ccc(C(=O)c2cn(C(C)C)c3ncnc(N)c23)cc1NC(=O)Nc1ccc(Cl)cc1Cl (10 µM) | 0
5 | C[C@@H]1CN(Cc2cn[nH]c2-c2ccc(C#N)cc2)CCN1c1ccc(C(F)(F)F)cn1 (2.5 µM) | 0
6 | O=C1c2c(O)cc(O)cc2O[C@H](c2cc(O)c(O)c(O)c2)[C@H]1O [Dihydromyricetin] (10 µM) | 0
7 | C=CC(=O)N[C@H]1CCOC[C@H]1Nc1ncc2cc(-c3c(Cl)c(OC)cc(OC)c3Cl)ccc2n1 [Fisogatinib] (10 µM) | 0
8 | CC(C)(O)c1cc(Nc2cc(Oc3cn(C4CC4)nc3C3CCOCC3)ccn2)ccn1 (10 µM) | 0
9 | CC[C@H](C)[C@@H]1NC(=O)[C@@H]2CCCN2C(=O)[C@@H]2CCCN2C(=O)[C@@H]2CCCN2C(=O)[C@H](CC(C)C)NC(=O)CNC(=O)CNC(=O)[C@H](Cc2ccccc2)NC1=O [Heterophyllin B] (10 µM) | 0
10 | COc1cc(-c2cnc(N)c(-c3ccc(NC(=O)c4cn(CC5CCOCC5)cc(-c5ccc(C)cn5)c4=O)cc3F)c2)ccc1OC[C@H]1COCCO1 [DS-1205b (free base)] (10 µM) | 0
11 | C=CC(=O)Nc1cccc(Nc2nc(Nc3ccc(Oc4ccnc(C(=O)NC)c4)cc3)ncc2F)c1 (2.5 µM) | 0
12 | COc1ccc(-c2cnc3c(-c4cccc5ncccc45)cnn3c2)cc1 (10 µM) | 0
13 | Cc1c(Br)c(Br)c2c3c1nc(N1CCNCC1)n3CCC2 [SEL120-34A (monohydrochloride)] (2.5 µM) | 0
14 | Cc1nc(Nc2ncc(C(=O)Nc3c(C)cccc3Cl)s2)cc(N2CCN(C(=O)CCCCCCC(=O)N[C@H](C(=O)N3C[C@H](O)C[C@H]3C(=O)NCc3ccc(-c4scnc4C)cc3)C(C)(C)C)CC2)n1 (2.5 µM) | 3
15 | CC(=O)Nc1nc(C)c(-c2ccc(Cl)c(S(=O)(=O)NCCO)c2)s1 (10 µM) | 0
16 | CC(C)n1nc(C#Cc2ccccc2)c2c(N)ncnc21 (10 µM) | 5
17 | COc1cc(OC)c(/C=C/S(=O)(=O)Cc2ccc(OC)c(NCC(=O)O)c2)c(OC)c1 [Rigosertib (sodium)] (10 µM) | 3
18 | CNC[C@@H](NC(=O)c1ccc(-c2nc([C@H]3CC[C@H](O)[C@@H](F)C3)cnc2N)cc1F)c1cc(F)cc(Br)c1 [Rineterkib] (10 µM) | 0
19 | CCCC[C@H](CO)Nc1nc(NC)ncc1OC [Interferon receptor inducer-1] (10 µM) | 0

Retrieved by compound from above (three):
Row | SMILES | number of time points
17 | COc1cc(OC)c(/C=C/S(=O)(=O)Cc2ccc(OC)c(NCC(=O)O)c2)c(OC)c1 [Rigosertib (sodium)] (10 µM) | 3
9 | CC[C@H](C)[C@@H]1NC(=O)[C@@H]2CCCN2C(=O)[C@@H]2CCCN2C(=O)[C@@H]2CCCN2C(=O)[C@H](CC(C)C)NC(=O)CNC(=O)CNC(=O)[C@H](Cc2ccccc2)NC1=O [Heterophyllin B] (10 µM) | 0
10 | COc1cc(-c2cnc(N)c(-c3ccc(NC(=O)c4cn(CC5CCOCC5)cc(-c5ccc(C)cn5)c4=O)cc3F)c2)ccc1OC[C@H]1COCCO1 [DS-1205b (free base)] (10 µM) | 0

Carrying on.

Row | SMILES | number of time points
20 | CC(C)=C/C=C1\O[C@@H]2CC(C)=CC(=O)[C@@H]2[C@]1(C)O [Bisabolangelone] (10 µM) | 0
21 | CCCCCC1CC1CC1CC1CCCCCCCC(=O)O (stereo not drawn) (10 µM) | 0
22 | CNC(=O)c1c(C)oc2cc(Oc3ncnc4cc(OC)c(OC)cc34)ccc12 [Fruquintinib] (10 µM) | 0
23 | CC(C)(C)S(=O)(=O)c1cc2c(Nc3ccc4scnc4c3)ccnc2cc1OCCOCCOCCOCCOCC(=O)Nc1cccc2c1CN(C1CCC(=O)NC1=O)C2=O (stereo not drawn) [PROTAC RIPK degrader-6] (10 µM) | 0
24 | C[C@]1(O)C[C@@](N)(c2ccc(-c3nc4n(c3-c3ccccc3)COc3ccncc3-4)cc2)C1 [TAS-117 (hydrochloride)] (10 µM) | 0
25 | CNC(=O)c1nnc(NC(=O)C2CC2)cc1Nc1cccc(-c2ncn(C)n2)c1OC [Deucravacitinib] (10 µM) | 0
26 | O=c1sn(-c2cccc3ccccc23)c(=O)n1Cc1ccccc1 [Tideglusib] (10 µM) | 0
27 | C=CC(=O)Nc1cccc(Oc2nc(Nc3ccc(N4CCN(C)CC4)cc3)ncc2Cl)c1 (2.5 µM) | 0
28 | CNC(=O)c1ccc(-c2cnc3ncc(Cc4ccc5ncccc5c4)n3n2)cc1F [Capmatinib] (10 µM) | 0
29 | CN(C)C(=O)c1cc2cnc(Nc3ccc(NC(=O)C4(C(=O)Nc5ccc(F)cc5)CC4)cc3)nc2n1C1CCCC1 (2 µM) | 0
30 | Cn1cc(C2=C(c3c4n(c5ccccc35)CCC(CN)C4)C(=O)NC2=O)c2ccccc21 (stereo not drawn) [Bisindolylmaleimide X (hydrochloride)] (2.5 µM) | 0
31 | COc1cc(/C=C/c2ccc(NC(=O)/C=C/c3cc(OC)c(OC)c(OC)c3)cc2)cc(OC)c1 (2.5 µM) | 0
32 | O=C(N=c1sccn1Cc1ccccc1)c1c[nH]c2ncccc12 (10 µM) | 0
33 | C=CCN(/C=C1/C(=O)O[C@H](COC)[C@@]2(C)C1=C(O)C(=O)C1=C2[C@H](OC(C)=O)C[C@]2(C)C(=O)CC[C@@H]12)CC=C [Sonolisib] (2.5 µM) | 3
34 | CC(C)(C)c1ccc(C(=O)Nc2cn3cc(-n4ccnc4)ccc3n2)cc1 (10 µM) | 0
35 | C[C@@]12CCc3occc3[C@H]1CC[C@@]13C[C@@H](CC[C@H]12)[C@@](O)(CO)C3 [Cafestol] (10 µM) | 0
36 | O=S(=O)(c1cccc2c(Cl)cccc12)N1CCCNCC1 (10 µM) | 0
37 | Oc1ccc2ccccc2c1SSc1c(O)ccc2ccccc12 (10 µM) | 0
38 | COc1cc(Nc2nc3ccccc3nc2NS(=O)(=O)c2ccc(NC(=O)c3ccc(C)c(OC)c3)cc2)cc(OC)c1 (10 µM) | 0
